Some of the results follow.
Compound: Cc1cc(ccc1-c1ccccc1)C(=O)N1CCCN(CC1)C(=O)CCl [compound 10]
Assay: probe-labelled cysteine peptide fold change vs DMSO (competition) (log2 fold change); higher = less target engagement (more negative = stronger competition)
Conditions: THP-1, incubation time: 4 h
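Note: competitive profiling in live THP-1 cells: cysteine peptides tagged with an iodoacetamide desthiobiotin (IA-DTB) probe, intensity after compound treatment relative to DMSO-treated cells.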

Protein sequences, listed by entry. Tags and fused reporters are not part of them. Lines headed by an entry give the natural chain unless they say otherwise; changes in a name come on top.
UniProt Q9H2D6: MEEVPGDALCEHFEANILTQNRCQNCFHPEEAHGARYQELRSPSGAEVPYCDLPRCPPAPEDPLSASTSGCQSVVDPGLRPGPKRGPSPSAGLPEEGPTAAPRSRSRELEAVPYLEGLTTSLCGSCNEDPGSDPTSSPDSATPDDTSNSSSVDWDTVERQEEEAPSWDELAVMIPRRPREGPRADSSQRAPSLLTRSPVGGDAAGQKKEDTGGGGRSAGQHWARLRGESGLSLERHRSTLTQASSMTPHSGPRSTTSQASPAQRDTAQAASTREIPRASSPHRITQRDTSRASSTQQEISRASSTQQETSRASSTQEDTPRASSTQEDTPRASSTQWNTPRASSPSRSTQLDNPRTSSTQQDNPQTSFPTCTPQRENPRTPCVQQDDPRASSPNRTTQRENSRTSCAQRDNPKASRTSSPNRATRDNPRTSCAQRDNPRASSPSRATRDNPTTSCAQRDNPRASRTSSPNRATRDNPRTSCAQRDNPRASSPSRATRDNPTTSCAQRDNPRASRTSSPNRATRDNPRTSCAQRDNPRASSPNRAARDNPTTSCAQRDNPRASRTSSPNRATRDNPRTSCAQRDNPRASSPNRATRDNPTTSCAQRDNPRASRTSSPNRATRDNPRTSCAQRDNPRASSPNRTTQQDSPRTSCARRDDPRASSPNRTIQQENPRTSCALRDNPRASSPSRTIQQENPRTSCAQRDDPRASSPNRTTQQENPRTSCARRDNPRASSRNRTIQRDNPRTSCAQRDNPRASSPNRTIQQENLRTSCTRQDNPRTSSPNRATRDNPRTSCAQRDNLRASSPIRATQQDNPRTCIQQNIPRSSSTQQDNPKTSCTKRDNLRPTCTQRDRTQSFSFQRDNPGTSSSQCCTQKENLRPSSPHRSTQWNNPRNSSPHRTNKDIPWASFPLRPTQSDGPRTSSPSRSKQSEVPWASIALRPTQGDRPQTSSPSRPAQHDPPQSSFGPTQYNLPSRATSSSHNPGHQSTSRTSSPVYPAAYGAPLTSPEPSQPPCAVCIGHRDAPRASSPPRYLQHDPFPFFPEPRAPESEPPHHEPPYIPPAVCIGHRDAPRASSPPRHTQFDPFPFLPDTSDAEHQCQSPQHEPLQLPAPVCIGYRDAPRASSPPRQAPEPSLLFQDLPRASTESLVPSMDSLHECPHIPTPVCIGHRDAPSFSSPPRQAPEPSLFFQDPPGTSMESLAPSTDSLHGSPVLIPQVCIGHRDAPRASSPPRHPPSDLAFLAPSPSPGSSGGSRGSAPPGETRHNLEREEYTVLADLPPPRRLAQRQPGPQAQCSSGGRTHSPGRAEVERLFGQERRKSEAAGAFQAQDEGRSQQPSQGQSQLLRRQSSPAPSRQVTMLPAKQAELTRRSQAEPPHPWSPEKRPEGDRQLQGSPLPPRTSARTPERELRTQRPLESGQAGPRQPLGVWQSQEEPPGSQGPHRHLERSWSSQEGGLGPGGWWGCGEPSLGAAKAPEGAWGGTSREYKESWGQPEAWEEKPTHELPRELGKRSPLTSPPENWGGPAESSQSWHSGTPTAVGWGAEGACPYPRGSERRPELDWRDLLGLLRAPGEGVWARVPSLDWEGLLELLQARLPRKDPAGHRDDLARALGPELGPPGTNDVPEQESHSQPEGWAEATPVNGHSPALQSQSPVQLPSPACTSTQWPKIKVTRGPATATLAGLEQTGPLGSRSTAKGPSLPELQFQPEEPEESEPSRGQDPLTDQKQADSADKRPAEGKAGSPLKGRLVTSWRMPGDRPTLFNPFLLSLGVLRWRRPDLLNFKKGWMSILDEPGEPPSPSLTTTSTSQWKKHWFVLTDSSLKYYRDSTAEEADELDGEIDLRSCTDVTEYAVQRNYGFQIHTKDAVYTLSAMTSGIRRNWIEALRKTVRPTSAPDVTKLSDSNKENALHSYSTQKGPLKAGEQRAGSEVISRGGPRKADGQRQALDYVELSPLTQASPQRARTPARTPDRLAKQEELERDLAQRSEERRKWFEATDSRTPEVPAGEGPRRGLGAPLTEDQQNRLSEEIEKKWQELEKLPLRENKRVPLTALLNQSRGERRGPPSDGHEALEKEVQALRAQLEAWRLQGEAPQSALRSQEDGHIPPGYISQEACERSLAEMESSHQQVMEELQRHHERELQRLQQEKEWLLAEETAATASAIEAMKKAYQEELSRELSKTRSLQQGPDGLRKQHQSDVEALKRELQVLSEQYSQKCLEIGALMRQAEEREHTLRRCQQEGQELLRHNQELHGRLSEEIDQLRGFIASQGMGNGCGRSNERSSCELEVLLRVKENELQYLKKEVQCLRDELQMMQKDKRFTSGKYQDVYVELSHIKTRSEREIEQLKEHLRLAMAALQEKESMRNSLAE
UniProt Q7Z2T5: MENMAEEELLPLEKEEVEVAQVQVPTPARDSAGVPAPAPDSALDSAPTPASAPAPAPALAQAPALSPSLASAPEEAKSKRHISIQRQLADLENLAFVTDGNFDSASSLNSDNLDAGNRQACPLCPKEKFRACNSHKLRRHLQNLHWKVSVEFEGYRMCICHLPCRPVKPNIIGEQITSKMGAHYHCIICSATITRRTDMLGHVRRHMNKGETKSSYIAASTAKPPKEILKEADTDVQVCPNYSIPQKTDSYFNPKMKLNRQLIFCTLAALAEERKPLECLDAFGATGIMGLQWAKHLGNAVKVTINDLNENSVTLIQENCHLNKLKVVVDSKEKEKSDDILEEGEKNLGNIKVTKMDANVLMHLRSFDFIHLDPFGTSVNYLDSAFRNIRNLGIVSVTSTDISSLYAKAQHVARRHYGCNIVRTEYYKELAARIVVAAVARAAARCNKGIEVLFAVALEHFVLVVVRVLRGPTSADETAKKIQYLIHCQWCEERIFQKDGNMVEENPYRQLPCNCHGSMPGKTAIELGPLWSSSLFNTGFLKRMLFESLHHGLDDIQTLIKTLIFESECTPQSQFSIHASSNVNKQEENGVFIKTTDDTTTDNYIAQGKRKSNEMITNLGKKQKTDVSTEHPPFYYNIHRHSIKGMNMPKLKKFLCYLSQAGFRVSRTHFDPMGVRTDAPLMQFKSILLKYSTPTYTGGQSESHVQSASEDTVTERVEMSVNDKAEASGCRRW
UniProt Q9UPN9: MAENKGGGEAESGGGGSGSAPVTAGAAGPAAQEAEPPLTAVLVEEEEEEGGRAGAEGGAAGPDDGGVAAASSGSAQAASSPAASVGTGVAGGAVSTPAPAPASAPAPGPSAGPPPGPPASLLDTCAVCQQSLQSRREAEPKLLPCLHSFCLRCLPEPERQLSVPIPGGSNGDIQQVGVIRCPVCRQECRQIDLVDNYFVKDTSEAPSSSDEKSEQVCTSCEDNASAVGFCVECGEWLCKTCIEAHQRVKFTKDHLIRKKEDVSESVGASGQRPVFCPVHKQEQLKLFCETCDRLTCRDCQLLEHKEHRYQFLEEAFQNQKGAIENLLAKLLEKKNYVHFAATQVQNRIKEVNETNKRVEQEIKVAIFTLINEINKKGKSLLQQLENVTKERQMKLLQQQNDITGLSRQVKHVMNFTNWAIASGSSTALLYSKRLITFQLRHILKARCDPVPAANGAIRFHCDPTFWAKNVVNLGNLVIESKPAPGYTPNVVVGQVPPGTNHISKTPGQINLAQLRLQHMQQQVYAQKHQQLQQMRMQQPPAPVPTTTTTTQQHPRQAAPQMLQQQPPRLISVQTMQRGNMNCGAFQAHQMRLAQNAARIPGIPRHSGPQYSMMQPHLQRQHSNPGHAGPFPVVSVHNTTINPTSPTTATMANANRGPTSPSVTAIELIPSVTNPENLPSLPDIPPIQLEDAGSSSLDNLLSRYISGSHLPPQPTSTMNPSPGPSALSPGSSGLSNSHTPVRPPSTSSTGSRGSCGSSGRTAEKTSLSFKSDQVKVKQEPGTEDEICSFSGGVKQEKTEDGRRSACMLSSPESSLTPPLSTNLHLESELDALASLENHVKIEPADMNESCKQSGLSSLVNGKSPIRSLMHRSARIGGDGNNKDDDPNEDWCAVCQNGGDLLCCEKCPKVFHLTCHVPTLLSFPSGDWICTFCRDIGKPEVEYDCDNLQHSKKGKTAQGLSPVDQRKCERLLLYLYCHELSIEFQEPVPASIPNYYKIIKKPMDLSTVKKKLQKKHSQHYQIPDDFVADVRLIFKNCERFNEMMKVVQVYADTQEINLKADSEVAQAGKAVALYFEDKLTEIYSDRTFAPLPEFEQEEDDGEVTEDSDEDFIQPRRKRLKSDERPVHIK
UniProt Q7L0Y3: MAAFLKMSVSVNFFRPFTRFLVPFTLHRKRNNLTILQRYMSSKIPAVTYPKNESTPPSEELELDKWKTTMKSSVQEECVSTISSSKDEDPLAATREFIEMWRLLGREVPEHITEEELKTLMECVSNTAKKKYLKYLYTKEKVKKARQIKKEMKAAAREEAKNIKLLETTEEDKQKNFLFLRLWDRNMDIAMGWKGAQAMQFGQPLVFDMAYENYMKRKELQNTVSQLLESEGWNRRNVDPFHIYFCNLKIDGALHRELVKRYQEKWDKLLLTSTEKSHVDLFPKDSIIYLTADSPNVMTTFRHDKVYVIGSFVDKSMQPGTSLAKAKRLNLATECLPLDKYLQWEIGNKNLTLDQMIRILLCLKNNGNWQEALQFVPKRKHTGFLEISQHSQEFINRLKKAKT
UniProt P48553, whole entry, looked up: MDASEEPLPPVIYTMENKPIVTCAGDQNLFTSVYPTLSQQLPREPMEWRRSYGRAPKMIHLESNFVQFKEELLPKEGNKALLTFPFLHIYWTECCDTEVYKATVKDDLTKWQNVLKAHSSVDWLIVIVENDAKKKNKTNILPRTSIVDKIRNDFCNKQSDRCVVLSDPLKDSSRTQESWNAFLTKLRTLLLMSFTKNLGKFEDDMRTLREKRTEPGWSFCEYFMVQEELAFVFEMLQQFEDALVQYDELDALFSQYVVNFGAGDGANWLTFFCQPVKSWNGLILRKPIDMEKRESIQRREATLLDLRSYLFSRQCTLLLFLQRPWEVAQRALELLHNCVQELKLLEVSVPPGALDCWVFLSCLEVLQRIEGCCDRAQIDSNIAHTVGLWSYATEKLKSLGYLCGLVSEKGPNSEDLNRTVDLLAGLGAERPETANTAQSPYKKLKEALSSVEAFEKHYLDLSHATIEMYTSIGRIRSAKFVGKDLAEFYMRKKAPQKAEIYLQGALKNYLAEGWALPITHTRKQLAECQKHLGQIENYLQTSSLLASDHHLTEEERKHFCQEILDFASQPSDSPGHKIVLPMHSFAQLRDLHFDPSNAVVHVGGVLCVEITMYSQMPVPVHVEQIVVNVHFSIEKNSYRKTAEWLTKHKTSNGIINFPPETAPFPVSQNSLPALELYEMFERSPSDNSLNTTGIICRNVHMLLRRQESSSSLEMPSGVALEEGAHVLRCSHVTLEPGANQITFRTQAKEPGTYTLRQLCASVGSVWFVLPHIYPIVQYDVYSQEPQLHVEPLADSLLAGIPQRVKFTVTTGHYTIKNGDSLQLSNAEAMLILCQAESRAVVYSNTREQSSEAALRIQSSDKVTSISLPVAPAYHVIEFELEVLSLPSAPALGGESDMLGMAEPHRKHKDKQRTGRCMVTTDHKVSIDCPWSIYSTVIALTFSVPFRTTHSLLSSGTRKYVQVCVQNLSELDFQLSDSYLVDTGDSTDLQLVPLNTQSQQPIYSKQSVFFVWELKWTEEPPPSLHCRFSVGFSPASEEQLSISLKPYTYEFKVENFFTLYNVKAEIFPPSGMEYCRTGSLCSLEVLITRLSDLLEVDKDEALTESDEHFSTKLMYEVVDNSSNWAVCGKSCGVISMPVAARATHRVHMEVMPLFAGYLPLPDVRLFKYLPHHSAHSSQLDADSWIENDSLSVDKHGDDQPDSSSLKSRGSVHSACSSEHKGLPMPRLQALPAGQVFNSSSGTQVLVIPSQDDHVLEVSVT
UniProt A5PLN9: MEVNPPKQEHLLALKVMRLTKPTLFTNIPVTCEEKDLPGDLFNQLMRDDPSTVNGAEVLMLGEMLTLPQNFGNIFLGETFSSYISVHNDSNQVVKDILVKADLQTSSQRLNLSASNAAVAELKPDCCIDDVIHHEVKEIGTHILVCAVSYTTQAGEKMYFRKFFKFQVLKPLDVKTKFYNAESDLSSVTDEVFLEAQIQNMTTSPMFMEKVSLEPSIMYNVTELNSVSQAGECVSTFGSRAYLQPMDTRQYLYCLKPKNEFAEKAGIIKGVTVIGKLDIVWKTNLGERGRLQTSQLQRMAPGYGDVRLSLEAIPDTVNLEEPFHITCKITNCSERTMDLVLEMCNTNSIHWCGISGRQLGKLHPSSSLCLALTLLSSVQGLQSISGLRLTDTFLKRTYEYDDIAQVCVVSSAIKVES
UniProt P13693: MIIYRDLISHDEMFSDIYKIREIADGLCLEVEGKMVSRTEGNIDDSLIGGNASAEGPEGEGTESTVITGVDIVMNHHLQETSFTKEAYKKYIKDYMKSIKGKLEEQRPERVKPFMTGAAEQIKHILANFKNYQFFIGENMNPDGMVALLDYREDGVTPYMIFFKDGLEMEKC

Row | Target | probe-labelled cysteine peptide fold change (10 µM) | probe-labelled cysteine peptide fold change (50 µM)
1 | TRERF1_Q96PN7_876_CHPLANYHYAGSDK (UniProt Q96PN7) | 0.125 | -0.873
2 | TRIM32_Q13049_509_YSCLCSAVRPK (UniProt Q13049) | -0.204 | -0.0318
3 | TRIM28_Q13263_717_VLLALFCHEPCRPLHQLATDSTFSLDQPGGTLDLTLIR (UniProt Q13263) | -0.0404 | -0.16
4 | TRIM26_Q12899_36_DPVTIDCGHVFCR (UniProt Q12899) | 0.118 | -0.0244
5 | TRMT1_Q9NXH9_351_QALVFQCVGCGAFHLQR (UniProt Q9NXH9) | 0.0014 | 0.202
6 | TRIOBP_Q9H2D6_1842_SCTDVTEYAVQR (UniProt Q9H2D6) | -0.0575 | 0.473
7 | TRIOBP_Q9H2D6_2271_GFIASQGMGNGCGR (UniProt Q9H2D6) | -0.235 | -0.235
8 | TRIM25_Q14258_127_TCLVCMASFCQEHLQPHFDSPAFQDHPLQPPVR (UniProt Q14258) | -0.278 | -0.34
9 | TRAPPC2L_Q9UL33_112_KLHNSYTDVMCNPFYNPGDR (UniProt Q9UL33) | 0.141 | -0.0539
10 | TRAF3IP3_Q9Y228_35_CRPNVTTCR (UniProt Q9Y228) | 0.0625 | 0.0955
11 | TRMT1L_Q7Z2T5_320_VTINDLNENSVTLIQENCHLNK (UniProt Q7Z2T5) | -0.042 | -1.02
12 | TRMT2A_Q8IZ69_365_ASGVTCLYFVEEGQR (UniProt Q8IZ69) | 0.194 | -0.0103
13 | TRAFD1_O14545_83_HEETECPLR (UniProt O14545) | -0.13 | -0.0815
14 | TRMT2A_Q8IZ69_243+260_CEFLVGVGVDGEDNTVGCR (UniProt Q8IZ69) | -0.214 | -0.0652
15 | TRIP6_Q15654_282_LVHDMNHPPSGEYFGQCGGCGEDVVGDGAGVVALDR (UniProt Q15654) | 0.294 | -0.00869
16 | TRIM33_Q9UPN9_276_EDVSESVGASGQRPVFCPVHK (UniProt Q9UPN9) | 0.0332 | 0.329
17 | TRMT2A_Q8IZ69_270_GGTCAVAAPFDTVHIPEATK (UniProt Q8IZ69) | -0.0935 | -0.357
18 | TRMT1_Q9NXH9_376_FSAACGPPVTPECEHCGQR (UniProt Q9NXH9) | 0.00575 | -0.131
19 | TPP2_P29144_28_KETGAASFLCR (UniProt P29144) | -0.0537 | -0.321
20 | TRIM36_Q9NQ86_469_INRDDEMSWNEIEVCGTSK (UniProt Q9NQ86) | -0.125 | 0.0977
21 | TRANK1_O15050_1947_DFQASCLLGAAR (UniProt O15050) | 0.0281 | 0.213

Row | Target | probe-labelled cysteine peptide fold change (10 µM) | probe-labelled cysteine peptide fold change (50 µM)
22 | TRIM25_Q14258_186_TCSPASLSQASADLEATLR (UniProt Q14258) | 0.0421 | 0.444
23 | TRIM26_Q12899_334_CVTYTSLYK (UniProt Q12899) | 0.0635 | 0.15
24 | TRIM33_Q9UPN9_786_QEPGTEDEICSFSGGVK (UniProt Q9UPN9) | -0.145 | 0.28
25 | TRMT10C_Q7L0Y3_246_NVDPFHIYFCNLK (UniProt Q7L0Y3) | 0.0643 | 0.0549
26 | TRMT1L_Q7Z2T5_656_FLCYLSQAGFR (UniProt Q7Z2T5) | -0.686 | -0.286
27 | TRIM24_O15164_246_DCQLLEHK (UniProt O15164) | 0.103 | -0.116
28 | TRIM33_Q9UPN9_276_KKEDVSESVGASGQRPVFCPVHK (UniProt Q9UPN9) | -0.0301 | -0.148
29 | TRIM28_Q13263_221+224_HEPLVLFCESCDTLTCR (UniProt Q13263) | -0.294 | 0.157
30 | TRAFD1_O14545_119_TELCGNCGR (UniProt O14545) | 0.656 | 0.496
31 | TRAPPC9_Q96Q05_1035_EAVAACQVGDPVR (UniProt Q96Q05) | -0.101 | 0.181
32 | TPP2_P29144_209_ACIDSNEDGDLSK (UniProt P29144) | 0.142 | 0.076
33 | TRMT1L_Q7Z2T5_239_EADTDVQVCPNYSIPQK (UniProt Q7Z2T5) | -0.348 | -0.634
34 | TRIM33_Q9UPN9_145+150_LLPCLHSFCLR (UniProt Q9UPN9) | -0.167 | -0.482
35 | TRIM28_Q13263_666+669_VCQKPGDLVMCNQCEFCFHLDCHLPALQDVPGEEWSCSLCHVLPDLK (UniProt Q13263) | 0.0214 | 0.0569
36 | TRIM28_Q13263_651_VCQKPGDLVMCNQCEFCFHLDCHLPALQDVPGEEWSCSLCHVLPDLK (UniProt Q13263) | 0.159 | 0.13
37 | TRAPPC12_Q8WVT3_731_EGDSFNTQCLK (UniProt Q8WVT3) | -0.354 | 0.0207
38 | TRIP6_Q15654_339+342_CATCSQPILDR (UniProt Q15654) | 0.045 | -0.28
39 | TRIP6_Q15654_307+310_VFHVGCFVCSTCR (UniProt Q15654) | -0.027 | -0.174
40 | TPP2_P29144_967_GAGPGCYLAGSLTLSK (UniProt P29144) | 0.000606 | -0.0824
41 | TRMT10C_Q7L0Y3_123_TLMECVSNTAK (UniProt Q7L0Y3) | 0.0352 | -0.00903
42 | TPP2_P29144_150_VALAEACR (UniProt P29144) | -0.136 | 0.0495

Row | Target | probe-labelled cysteine peptide fold change (10 µM) | probe-labelled cysteine peptide fold change (50 µM)
43 | TRIT1_Q9H3H1_397_SYHLCDLCDR (UniProt Q9H3H1) | 0.171 | -0.26
44 | TRMT10A_Q8TBZ6_285_ACESASHDNQSVR (UniProt Q8TBZ6) | -0.00332 | -0.311
45 | TRIM13_O60858_25_VLPCSHNFCK (UniProt O60858) | 0.00631 | -0.119
46 | TRMT11_Q7Z4G4_161_KPQHVFSVLEDYGLDPNCIPENPHNIYFGR (UniProt Q7Z4G4) | -0.0115 | -0.0241
47 | TRIM28_Q13263_221+229_HEPLVLFCESCDTLTCR (UniProt Q13263) | -0.0841 | -0.368
48 | TRIM14_Q14142_151_EQADSCR (UniProt Q14142) | -0.129 | -0.0879
49 | TRAPPC10_P48553_560_HFCQEILDFASQPSDSPGHK (UniProt P48553) | 0.0818 | 0.0782
50 | TRIM33_Q9UPN9_241_TCIEAHQR (UniProt Q9UPN9) | 0.214 | 0.367
51 | TRIM25_Q14258_174+176+179_EFFCPEHSECICHICLVEHK (UniProt Q14258) | -0.181 | -0.757
52 | TRIM21_P19474_103_LHLFCEK (UniProt P19474) | 0.171 | -0.196
53 | TRIM28_Q13263_713+717_VLLALFCHEPCRPLHQLATDSTFSLDQPGGTLDLTLIR (UniProt Q13263) | 0.037 | -0.42
54 | TRAPPC13_A5PLN9_327_LSLEAIPDTVNLEEPFHITCK (UniProt A5PLN9) | 0.0844 | 0.00702
55 | TRAPPC9_Q96Q05_904_QCHLLLDVFNSTEHELTVSTR (UniProt Q96Q05) | 0.181 | 0.0773
56 | TRIM28_Q13263_713_VLLALFCHEPCRPLHQLATDSTFSLDQPGGTLDLTLIR (UniProt Q13263) | 0.362 | 0.0791
57 | TPT1_P13693_28_EIADGLCLEVEGK (UniProt P13693) | -0.12 | 0.0761
58 | TRIM28_Q13263_232_DCQLNAHK (UniProt Q13263) | 0.032 | -0.219
59 | TRANK1_O15050_1930_QHGCLLEAAR (UniProt O15050) | -0.0687 | -0.106
60 | TRAPPC8_Q9Y2L5_1330+1341_SLCLVPVTLLLSNCSK (UniProt Q9Y2L5) | -0.122 | 0.0691
61 | TRMT1_Q9NXH9_150_TAAVGEICEEGLHVLEGLAASGLR (UniProt Q9NXH9) | -0.0654 | -0.0072
62 | TRMT1_Q9NXH9_86_DLTCAVITEFAR (UniProt Q9NXH9) | -0.00606 | -0.169
63 | TRIM36_Q9NQ86_48+53_ELFTHPLILPCQHSICHK (UniProt Q9NQ86) | 0.0203 | 0.00239

Row | Target | probe-labelled cysteine peptide fold change (10 µM) | probe-labelled cysteine peptide fold change (50 µM)
64 | TRAPPC10_P48553_1025_WTEEPPPSLHCR (UniProt P48553) | 0.0629 | 0.0659
65 | TRAPPC12_Q8WVT3_160_EVPGSEAARPEQEPPVAEPVPVCTIFSQR (UniProt Q8WVT3) | 0.0745 | 0.0995
66 | TRIP6_Q15654_279+282_LVHDMNHPPSGEYFGQCGGCGEDVVGDGAGVVALDR (UniProt Q15654) | -0.0377 | -0.185
67 | TRMT1_Q9NXH9_621_GDQCCYSHSPPTPR (UniProt Q9NXH9) | -0.0265 | -0.0659
68 | TRIP10_Q15642_99_VCLELTK (UniProt Q15642) | -0.0206 | 0.0263
69 | TRAF2_Q12933_223_FHAIGCLETVEGEK (UniProt Q12933) | -0.0878 | -0.354
70 | TRIP12_Q14669-3_77_RSCSSSSAVIVPQPEDPDRANTSER (UniProt Q14669) | 0.0506 | -0.279
71 | TRIM21_P19474_92_CAVHGER (UniProt P19474) | -0.0683 | -0.103
72 | TRIM25_Q14258_176_LREFFCPEHSECICHICLVEHK (UniProt Q14258) | -0.0323 | -0.0765
73 | TRAPPC11_Q7Z392_502_CSYLMAQLK (UniProt Q7Z392) | 0.00419 | 0.439
74 | TRIP6_Q15654_304+310_VFHVGCFVCSTCR (UniProt Q15654) | 0.322 | 0.079
75 | TRIM32_Q13049_100_IIDTAGLSEAVGLLMCR (UniProt Q13049) | -0.0382 | 0.498
76 | TRIP12_Q14669_502_SVVPALITLLQMEHNFDIMNHACR (UniProt Q14669) | 0.108 | 0.00473
77 | TRAF3IP3_Q9Y228_501_ELHSELDNLSDEYLSCLR (UniProt Q9Y228) | 0.399 | 0.31
78 | TRMT1L_Q7Z2T5_189_MGAHYHCIICSATITR (UniProt Q7Z2T5) | 0.0491 | 0.249
79 | TRAPPC13_A5PLN9-4_326_ITNCSSER (UniProt A5PLN9) | 0.153 | 0.0668
80 | TRMT112_Q9UI30_33_ICPVEFNPNFVAR (UniProt Q9UI30) | -0.0763 | -0.358
81 | TRIP6_Q15654_307_VFHVGCFVCSTCR (UniProt Q15654) | -0.0314 | 0.0788

From the supplement of paper PMC12067093, “Discovery and optimisation of a covalent ligand for TRIM25 and its application to targeted protein ubiquitination” (Chemical Science, 2025)
